The exact form of at least one protein or probe is not confirmed. For some assays here: The comparison behind a weaker result is the experiment's own reference, which may not be listed here.
Legend:
[1] = tested on: S114A-UVI31+ (Chlamydomonas reinhardtii); experiment: NMR; details: minimal CSPs compared with wild type; NMR: 50 mM Na-phosphate, 50 mM NaCl, pH 6.4, 25 C; recombinant protein; protein details: N-terminal His tag, as wild type
[2] = tested on: UVI31+ (wild type) (Chlamydomonas reinhardtii); experiment: NMR; details: significant CSPs (A35 K37 F49 K50 K57 H58 A59 H76 L79 K118 T119); NMR: 50 mM Na-phosphate, 50 mM NaCl, pH 6.4, 25 C; recombinant protein; protein details: N-terminal MRGSHHHHHHGS

CGCGAATTCGCG (double strand) [12-mer self-complementary ds-DNA]
binding result [1]: binds more weakly | binding result [2]: binds

— PMC6137056
